From article PMC8217053
These are yes or no findings as the source states them, for the method shown. In cells and extracts the contact can be indirect. Some entries that bind do so weakly or less than the wild type. Tags and fused reporters may be left off the sequences shown. Values belong to the molecule of their own block, whether it stands above or below them.

Amino acid sequences for entries named in this document (tags omitted). Residues count along the entry.
UniProt Q92673, residues 82-2214: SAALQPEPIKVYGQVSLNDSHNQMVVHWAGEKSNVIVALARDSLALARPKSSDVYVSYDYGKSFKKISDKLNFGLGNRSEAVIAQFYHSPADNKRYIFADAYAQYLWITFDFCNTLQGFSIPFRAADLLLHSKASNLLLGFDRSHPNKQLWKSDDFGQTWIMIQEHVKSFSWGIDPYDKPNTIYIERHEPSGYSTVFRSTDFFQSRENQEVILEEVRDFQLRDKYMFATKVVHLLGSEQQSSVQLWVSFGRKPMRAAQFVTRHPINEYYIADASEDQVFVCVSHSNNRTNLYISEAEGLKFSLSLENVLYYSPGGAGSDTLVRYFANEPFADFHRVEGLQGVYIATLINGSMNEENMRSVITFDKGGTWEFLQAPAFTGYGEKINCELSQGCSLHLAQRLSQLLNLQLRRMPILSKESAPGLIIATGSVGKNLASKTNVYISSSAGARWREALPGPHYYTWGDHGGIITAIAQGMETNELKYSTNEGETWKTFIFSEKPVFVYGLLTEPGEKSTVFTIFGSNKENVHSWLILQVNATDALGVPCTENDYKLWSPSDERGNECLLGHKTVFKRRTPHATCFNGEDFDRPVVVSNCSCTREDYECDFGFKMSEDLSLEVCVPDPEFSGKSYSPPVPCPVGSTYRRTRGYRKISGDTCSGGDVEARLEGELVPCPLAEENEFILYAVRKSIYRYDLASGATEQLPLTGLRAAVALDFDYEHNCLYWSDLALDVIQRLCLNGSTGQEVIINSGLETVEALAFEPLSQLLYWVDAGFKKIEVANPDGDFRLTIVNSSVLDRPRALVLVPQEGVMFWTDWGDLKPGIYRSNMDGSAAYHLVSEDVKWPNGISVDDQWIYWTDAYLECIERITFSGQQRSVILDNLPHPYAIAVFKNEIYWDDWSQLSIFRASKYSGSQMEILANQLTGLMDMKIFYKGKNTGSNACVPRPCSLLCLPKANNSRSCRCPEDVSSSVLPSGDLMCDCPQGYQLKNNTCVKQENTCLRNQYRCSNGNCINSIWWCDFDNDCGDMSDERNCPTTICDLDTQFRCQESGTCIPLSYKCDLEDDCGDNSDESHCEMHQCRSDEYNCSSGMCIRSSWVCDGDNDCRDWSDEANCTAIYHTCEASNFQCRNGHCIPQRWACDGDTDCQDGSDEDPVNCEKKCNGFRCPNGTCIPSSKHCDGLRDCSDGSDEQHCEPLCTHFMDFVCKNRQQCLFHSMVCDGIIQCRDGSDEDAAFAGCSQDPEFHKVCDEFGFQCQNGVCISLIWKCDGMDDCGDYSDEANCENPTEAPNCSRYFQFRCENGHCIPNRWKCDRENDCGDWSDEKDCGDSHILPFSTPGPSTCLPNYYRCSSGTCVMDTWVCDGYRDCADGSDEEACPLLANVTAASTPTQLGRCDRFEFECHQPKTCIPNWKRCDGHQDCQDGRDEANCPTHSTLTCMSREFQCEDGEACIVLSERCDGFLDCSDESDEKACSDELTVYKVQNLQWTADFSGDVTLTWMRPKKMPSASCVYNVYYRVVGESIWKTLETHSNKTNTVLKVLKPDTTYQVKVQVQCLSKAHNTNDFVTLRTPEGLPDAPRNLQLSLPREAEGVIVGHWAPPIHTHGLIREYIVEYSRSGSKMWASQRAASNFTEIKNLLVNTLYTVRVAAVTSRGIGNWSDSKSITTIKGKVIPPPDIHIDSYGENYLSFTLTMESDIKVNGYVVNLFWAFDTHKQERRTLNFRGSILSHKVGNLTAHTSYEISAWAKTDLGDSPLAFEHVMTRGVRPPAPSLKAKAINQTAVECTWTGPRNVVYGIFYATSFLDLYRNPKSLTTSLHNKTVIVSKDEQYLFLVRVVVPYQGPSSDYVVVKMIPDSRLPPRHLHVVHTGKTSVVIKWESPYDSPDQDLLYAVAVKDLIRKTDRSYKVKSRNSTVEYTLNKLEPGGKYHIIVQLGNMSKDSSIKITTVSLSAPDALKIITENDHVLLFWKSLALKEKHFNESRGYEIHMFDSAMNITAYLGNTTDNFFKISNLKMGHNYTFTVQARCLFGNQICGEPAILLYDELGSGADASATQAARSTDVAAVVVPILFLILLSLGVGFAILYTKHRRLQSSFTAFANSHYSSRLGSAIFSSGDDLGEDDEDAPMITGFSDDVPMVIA

Experiments:
[1] = target: T1, N-terminally V5-tagged full-length LRP10 (low-density lipoprotein receptor-related protein 10) (human) (UniProt Q7Z4F1); assay: co-IP; HEK293T cells transfected with V5-LRP10 and SORL1 constructs, lysed after 48 h; precleared lysate (400 ug) incubated overnight at 4 C with antibody-loaded Protein G magnetic beads (mouse anti-SORL1 or anti-LRP10; mouse IgG as negative control); washes with 50 mM Tris-Cl pH 7.4, 0.5 M NaCl, 0.05% TWEEN 20, 0.05% IGEPAL CA-630; Western blot; LRP10 KO cells with SORL1 alone as control
T1 sequence: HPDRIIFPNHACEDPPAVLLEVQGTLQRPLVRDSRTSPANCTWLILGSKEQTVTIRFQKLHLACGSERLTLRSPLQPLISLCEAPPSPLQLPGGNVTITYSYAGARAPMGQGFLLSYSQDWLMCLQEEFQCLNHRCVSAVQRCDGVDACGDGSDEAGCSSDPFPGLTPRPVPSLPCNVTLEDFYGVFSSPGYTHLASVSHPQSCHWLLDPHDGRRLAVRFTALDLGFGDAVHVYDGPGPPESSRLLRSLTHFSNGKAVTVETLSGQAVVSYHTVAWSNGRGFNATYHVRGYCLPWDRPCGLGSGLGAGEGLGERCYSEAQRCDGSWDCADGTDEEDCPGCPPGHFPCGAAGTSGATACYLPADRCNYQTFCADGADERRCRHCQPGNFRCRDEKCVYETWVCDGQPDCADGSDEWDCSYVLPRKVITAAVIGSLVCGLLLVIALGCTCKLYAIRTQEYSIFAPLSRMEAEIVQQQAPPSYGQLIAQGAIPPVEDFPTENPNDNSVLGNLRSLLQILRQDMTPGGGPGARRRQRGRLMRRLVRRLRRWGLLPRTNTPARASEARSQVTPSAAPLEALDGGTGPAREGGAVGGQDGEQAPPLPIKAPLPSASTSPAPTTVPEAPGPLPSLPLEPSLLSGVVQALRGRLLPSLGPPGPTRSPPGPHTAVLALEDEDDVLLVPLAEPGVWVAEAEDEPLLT

[2] = target: untagged full-length SORL1 (sortilin-related receptor 1) (human) (UniProt Q92673); assay: as above

binding [1]: binds
Molecule: untagged full-length SORL1 (sortilin-related receptor 1) (from UniProt Q92673 82-2214)

binding [2]: binds
B1: N-terminally V5-tagged full-length LRP10 (low-density lipoprotein receptor-related protein 10) (receptor, UniProt Q7Z4F1 17-713)
chain: T1 sequence
